No constants are given. Whether binding was seen depends on the method and setting. For some of these results: In cells and extracts the contact can be indirect. Some entries that bind do so weakly or less than the wild type. For some of these results: Sequences can lack the tags named with a protein.

Amino acid sequences for entries named in this document (tags omitted). A change or cut given only in a name is not applied to a line headed by its entry.
UniProt Q15797: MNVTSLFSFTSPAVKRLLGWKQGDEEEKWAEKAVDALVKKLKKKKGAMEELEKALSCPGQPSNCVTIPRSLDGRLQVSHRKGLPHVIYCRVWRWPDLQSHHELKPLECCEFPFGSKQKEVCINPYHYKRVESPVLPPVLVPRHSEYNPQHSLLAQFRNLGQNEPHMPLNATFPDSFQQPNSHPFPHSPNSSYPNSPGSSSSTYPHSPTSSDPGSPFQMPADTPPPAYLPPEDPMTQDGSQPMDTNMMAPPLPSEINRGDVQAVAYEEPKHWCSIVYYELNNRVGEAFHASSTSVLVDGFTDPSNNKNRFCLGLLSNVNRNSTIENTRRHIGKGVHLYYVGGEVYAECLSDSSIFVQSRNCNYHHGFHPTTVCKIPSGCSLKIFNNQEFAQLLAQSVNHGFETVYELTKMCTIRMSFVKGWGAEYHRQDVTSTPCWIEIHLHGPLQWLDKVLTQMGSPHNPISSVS
UniProt P28867: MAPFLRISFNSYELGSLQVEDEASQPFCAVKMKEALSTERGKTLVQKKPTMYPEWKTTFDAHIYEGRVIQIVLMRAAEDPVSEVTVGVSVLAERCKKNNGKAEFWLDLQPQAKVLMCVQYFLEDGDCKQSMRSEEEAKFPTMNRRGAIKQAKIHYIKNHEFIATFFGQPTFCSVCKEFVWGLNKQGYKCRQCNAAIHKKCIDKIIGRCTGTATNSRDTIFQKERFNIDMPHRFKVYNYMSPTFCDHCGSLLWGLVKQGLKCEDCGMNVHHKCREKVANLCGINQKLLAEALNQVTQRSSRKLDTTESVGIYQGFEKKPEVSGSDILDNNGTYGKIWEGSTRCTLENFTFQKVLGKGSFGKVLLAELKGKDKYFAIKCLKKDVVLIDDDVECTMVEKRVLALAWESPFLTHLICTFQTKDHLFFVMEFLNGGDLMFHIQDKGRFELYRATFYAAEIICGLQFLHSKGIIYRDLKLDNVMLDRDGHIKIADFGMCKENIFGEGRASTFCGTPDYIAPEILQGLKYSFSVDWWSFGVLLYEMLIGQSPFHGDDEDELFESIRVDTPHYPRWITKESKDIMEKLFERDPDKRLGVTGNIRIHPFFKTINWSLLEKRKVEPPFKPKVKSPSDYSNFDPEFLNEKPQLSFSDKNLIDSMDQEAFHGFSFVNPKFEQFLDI

Our source for the binding values is paper PMC2947522.

The target of test [1] is GST-Smad1 fusion protein (UniProt Q15797). Put plainly: pull-down; GST-Smad1 coupled to Glutathione-Sepharose, incubated with mPOB lysate (20 mM HEPES-KOH pH 7.5, 150 mM NaCl, 1% Triton-X100) for 1 h at 4 C, washed three times; endogenous PKCδ detected by Western blot; only the target purified. In general terms: A western blot detects proteins with antibodies after separation by electrophoresis.

Test [2] shares this target. Put plainly: pull-down; GST-Smad1 coupled to Glutathione-Sepharose, incubated with Flag-JunD (WT or C-terminally truncated) or V5-ΔFosB; washed; detected by Western blot with anti-Flag or anti-V5; only the target purified.
Test [3] addresses Myc-tagged Smad1 (UniProt Q15797). Put plainly: DNA precipitation assay; nuclear lysates of mPOBs co-transfected with V5-ΔFosB, Flag-JunD (WT, Δ1 or Δ2) and Myc-Smad1; biotinylated IL-11 promoter probe 1 (AP-1 site) or probe 3 (SBE) on Streptavidin Sepharose, 4 C; Western blot with anti-V5, anti-Flag and anti-Myc.

For the molecule “protein kinase C (PKC)δ (from UniProt P28867 1-674) (enzyme)”, the binding entry in test [1] was “binds”.

B1: V5-tagged ΔFosB (full-length) (protein, UniProt P13346-2 1-237)
chain: MFQAFPGDYDSGSRCSSSPSAESQYLSSVDSFGSPPTAAASQECAGLGEMPGSFVPTVTAITTSQDLQWLVQPTLISSMAQSQGQPLASQPPAVDPYDMPGTSYSTPGLSAYSTGGASGSGGPSTSTTTSGPVSARPARARPRRPREETLTPEEEEKRRVRRERNKLAAAKCRNRRRELTDRLQAETDQLEEEKAELESEIAELQKEKERLEFVLVAHKPGCKIPYEEGPGPGPLAE
On to B1, for which, in test [2], the binding entry is listed as “no binding”.

B2: Flag-tagged JunD (WT: full-length) (protein, UniProt P15066 1-341)
chain: METPFYGEEALSGLAAGASSVAGATGAPGGGGFAPPGRAFPGAPPTSSMLKKDALTLSLAEQGAAGLKPGSATAPSALRPDGAPDGLLASPDLGLLKLASPELERLIIQSNGLVTTTPTSTQFLYPKVAASEEQEFAEGFVKALEDLHKQSQLGAATAATSGAPAPPAPADLAATPGATETPVYANLSSFAGGAGPPGGAATVAFAAEPVPFPPPPGALGPPPPPHPPRLAALKDEPQTVPDVPSFGDSPPLSPIDMDTQERIKAERKRLRNRIAASKCRKRKLERISRLEEKVKTLKSQNTELASTASLLREQVAQLKQKVLSHVNSGCQLLPQHQVPAY
In the case of B2, the binding result in test [3] and in test [2] was “binds” throughout.
